Source: US20210322375A1, “COMBINATION DRUG FORMULATIONS FOR TREATING PATIENTS WITH CARDIOVASCULAR DISEASE AND ASSOCIATED CONDITIONS” (Esperion Therapeutics, Inc., priority 2018, published 2021)
Some entries share one result that the patent states for a list of compounds.

Tested on: hypercholesterolemic patients
Experiment: Phase 2b randomized double-blind trial: percent change from baseline to week 12 in lipids and CRP
Assay type: in vivo, human
Conditions: of treatment; maintained throughout the study
Description: Brief Description of Clinical Study and Results.
Study Objectives. The primary objective was to assess the LDL-C-lowering effect of ETC-1002 monotherapy (120 mg or 180 mg daily) versus EZE monotherapy in hypercholesterolemic patients with or without statin intolerance. Secondary objectives were to characterize the dose response of ETC-1002, evaluate the impact of treatment on other lipid and cardiometabolic biomarkers, compare the LDL-C-lowering effect of ETC-1002 plus EZE combination therapy with EZE monotherapy, and characterize the safety and tolerability of the treatment regimens, including muscle-related adverse events (AEs).
Overall Study Design and Plan. […] 16, 2013 to Aug.
LDL-C was calculated using the Friedewald equation.
Efficacy Endpoints. The primary endpoint was the percent change from baseline to week 12 in calculated LDL-C in patients treated with ETC-1002 monotherapy versus those treated with EZE alone. […] Lipoprotein particle number was measured using nuclear magnetic resonance […]. […]
An analysis of covariance was used to compare each ETC-1002 treatment group with EZE monotherapy for each of the efficacy endpoints. […] When LDL-C could not be calculated (i.e., triglycerides >400 mg/dL), beta-quantification measurements were used to determine LDL-C values. […]

Row | Compound | Time until decrease in LDL-C occurred [weeks]
1 | O=C1[C@H](CC[C@H](O)c2ccc(F)cc2)[C@@H](c2ccc(O)cc2)N1c1ccc(F)cc1 [EZE, (3R,4S)-1-(4-fluorophenyl)-3-[(3S)-3-(4-fluorophenyl)-3-hydroxypropyl]-4-(4-hydroxyphenyl)azetidin-2-one, reference compound] | ≤ 2
2 | CC(C)(CCCCCC(O)CCCCCC(C)(C)C(=O)O)C(=O)O [ETC-1002, 8-hydroxy-2,2,14,14 tetramethylpentadecanedioic acid] | ≤ 2
